For one molecule, binding results are on record in PMC9126881.

Results are given in words; binding and its absence hold for the method and conditions named. Binding seen in cells or lysates may run through a third protein. Some results given as binding are weak or reduced against the parent protein; the word gives no strength.

The target of this assay is T1, period circadian protein 2 (human (endogenous in AS-BMSCs)) (UniProt O15055).
T1 sequence: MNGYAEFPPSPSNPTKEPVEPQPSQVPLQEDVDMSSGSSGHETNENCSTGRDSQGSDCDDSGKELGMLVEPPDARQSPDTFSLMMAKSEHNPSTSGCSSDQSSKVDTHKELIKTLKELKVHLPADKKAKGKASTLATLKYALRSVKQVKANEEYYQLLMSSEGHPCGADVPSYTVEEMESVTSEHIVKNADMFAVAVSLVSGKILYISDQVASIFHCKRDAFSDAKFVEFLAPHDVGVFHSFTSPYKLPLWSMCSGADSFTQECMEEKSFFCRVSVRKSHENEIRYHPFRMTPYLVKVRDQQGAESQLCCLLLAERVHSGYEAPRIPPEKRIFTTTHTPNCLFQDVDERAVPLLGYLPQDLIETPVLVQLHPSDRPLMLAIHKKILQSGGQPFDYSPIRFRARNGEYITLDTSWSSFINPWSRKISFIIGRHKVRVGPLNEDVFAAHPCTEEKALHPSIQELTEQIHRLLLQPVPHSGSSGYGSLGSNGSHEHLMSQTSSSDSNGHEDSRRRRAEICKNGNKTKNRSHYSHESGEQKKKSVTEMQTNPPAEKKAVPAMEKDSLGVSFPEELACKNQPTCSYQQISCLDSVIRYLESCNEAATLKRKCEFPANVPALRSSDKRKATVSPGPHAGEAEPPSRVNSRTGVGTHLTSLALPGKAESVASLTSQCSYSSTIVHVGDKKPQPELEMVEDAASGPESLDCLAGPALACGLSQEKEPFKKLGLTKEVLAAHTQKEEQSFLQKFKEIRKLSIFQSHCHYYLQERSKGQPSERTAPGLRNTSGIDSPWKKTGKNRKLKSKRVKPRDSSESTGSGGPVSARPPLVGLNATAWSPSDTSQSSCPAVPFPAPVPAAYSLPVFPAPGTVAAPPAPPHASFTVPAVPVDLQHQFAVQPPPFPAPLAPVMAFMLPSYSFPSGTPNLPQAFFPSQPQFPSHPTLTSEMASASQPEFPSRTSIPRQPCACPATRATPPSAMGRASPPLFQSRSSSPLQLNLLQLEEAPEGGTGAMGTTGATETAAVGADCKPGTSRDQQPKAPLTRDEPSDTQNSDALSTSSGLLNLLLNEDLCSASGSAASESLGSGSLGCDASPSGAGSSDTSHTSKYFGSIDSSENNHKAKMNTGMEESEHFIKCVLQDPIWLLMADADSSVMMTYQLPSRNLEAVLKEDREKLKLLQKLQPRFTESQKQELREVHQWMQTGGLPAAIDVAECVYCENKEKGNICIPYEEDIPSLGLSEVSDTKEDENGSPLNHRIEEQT
In words: co-IP; AS-BMSC lysate (100 mM Tris-HCl pH 7.4, 150 mM NaCl, 10% glycerol, 0.5% Triton X-100, protease inhibitors), precleared with protein A/G Sepharose; PER2 antibody overnight at 4 °C, protein A/G Sepharose beads 1 h, 4 washes; Western blot with PER2 and Wnt7b antibodies. (In western blotting, separated proteins are transferred to a membrane and probed.)

B1: Wnt7b (protein, UniProt P56706 25-349)
chain: ALSSVVALGANIICNKIPGLAPRQRAICQSRPDAIIVIGEGAQMGINECQYQFRFGRWNCSALGEKTVFGQELRVGSREAAFTYAITAAGVAHAVTAACSQGNLSNCGCDREKQGYYNQAEGWKWGGCSADVRYGIDFSRRFVDAREIKKNARRLMNLHNNEAGRKVLEDRMQLECKCHGVSGSCTTKTCWTTLPKFREVGHLLKEKYNAAVQVEVVRASRLRQPTFLRIKQLRSYQKPMETDLVYIEKSPNYCEEDAATGSVGTQGRLCNRTSPGADGCDTMCCGRGYNTHQYTKVWQCNCKFHWCCFVKCNTCSERTEVFTCK
For the molecule B1, the binding entry was “binds”.
